Laboratory results published in publication PMC11655885, “Structural mechanism of CB1R binding to peripheral and biased inverse agonists” (Nature Communications, 2024).
Results are given in words; binding and its absence hold for the method and conditions named. Binding seen in cells or lysates may run through a third protein. Some binding calls cover weakened binding; strength is not graded here.

Sequences of proteins named here, by UniProt entry; tags and fusion partners are left off.
UniProt P21554: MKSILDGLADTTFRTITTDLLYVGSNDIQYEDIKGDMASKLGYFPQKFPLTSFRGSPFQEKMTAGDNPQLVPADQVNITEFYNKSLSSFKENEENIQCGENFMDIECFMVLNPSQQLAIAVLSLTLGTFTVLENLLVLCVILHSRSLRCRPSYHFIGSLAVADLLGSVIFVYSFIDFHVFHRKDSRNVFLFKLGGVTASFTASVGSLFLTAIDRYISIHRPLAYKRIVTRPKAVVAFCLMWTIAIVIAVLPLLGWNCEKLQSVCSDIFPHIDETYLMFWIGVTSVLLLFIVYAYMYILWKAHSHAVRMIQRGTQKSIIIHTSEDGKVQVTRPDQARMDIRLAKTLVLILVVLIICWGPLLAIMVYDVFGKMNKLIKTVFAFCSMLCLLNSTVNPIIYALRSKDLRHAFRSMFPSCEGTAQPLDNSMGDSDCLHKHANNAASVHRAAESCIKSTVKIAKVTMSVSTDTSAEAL
UniProt P32121: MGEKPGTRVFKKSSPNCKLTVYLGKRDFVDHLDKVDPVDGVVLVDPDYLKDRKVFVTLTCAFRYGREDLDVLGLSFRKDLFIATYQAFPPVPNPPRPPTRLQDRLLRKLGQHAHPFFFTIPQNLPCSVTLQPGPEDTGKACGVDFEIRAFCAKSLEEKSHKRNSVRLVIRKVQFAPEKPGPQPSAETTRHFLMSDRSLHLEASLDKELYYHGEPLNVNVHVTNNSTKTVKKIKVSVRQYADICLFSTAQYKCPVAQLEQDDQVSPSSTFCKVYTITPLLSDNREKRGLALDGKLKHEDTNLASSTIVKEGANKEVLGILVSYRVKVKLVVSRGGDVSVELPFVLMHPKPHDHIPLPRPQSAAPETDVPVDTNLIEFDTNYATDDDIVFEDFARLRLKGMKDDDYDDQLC

Molecular target: human CB1R in PathHunter eXpress CNR1 CHO-K1 β-arrestin-2 cells (human) (UniProt P21554)
Experiment: split reporter; DiscoverX PathHunter β-arrestin-2 recruitment assay for hCNR1 in CHO-K1 cells, with the agonist CP55,940 (30 nM); inverse agonists taranabant, MRI-1867, MRI-1891 titrated

binding: binds
Substance: β-arrestin-2 in PathHunter eXpress CNR1 CHO-K1 β-arrestin-2 cells (from UniProt P32121 1-409)
